In PMC5713202:
No constants are given. Whether binding was seen depends on the method and setting. In cells and extracts the contact can be indirect. Some entries that bind do so weakly or less than the wild type.

Target: von Hippel–Lindau (VHL) protein (pVHL), mouse heart (mouse (endogenous in mouse heart)), P40338
Assay: co-IP; mouse heart homogenates (WT, TgPLN^R9C, NHE1-Tg mice, 16 weeks) precipitated with anti-pVHL antibody on SureBeads Protein G Magnetic Beads; Western blot with anti-PLN antibody
Conditions: remark: other sources report otherwise

B1: phospholamban (PLN), mouse heart, P61014 1-52 (protein)
chain: MEKVQYLTRSAIRRASTIEMPQQARQNLQNLFINFCLILICLLLICIIVMLL
- binding: binds
